The list shows a part of the results. Single values are uncertain, as repeats are few or missing.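 Cells were imaged in 1,536-well plates, and nuclei stained with an antibody against cleaved PARP were counted against all DNA-stained nuclei to give the apoptosis fraction. Screening doses were chosen to leave most cells alive, and resting and induced cleaved-PARP levels differ strongly between cell lines.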

The test has as its system MeWo. Briefly: cleaved PARP positive nuclei fraction relative to DMSO control; melanoma cells; higher = more apoptosis. Particulars: library dose: low library concentration; 72 h.
Regarding `NC(=O)Nc1cc(-c2cccc(F)c2)sc1C(=O)N[C@H]1CCCNC1` + Oc1cc(-c2nc(-c3ccccc3)[nH]c2-c2ccncc2)ccc1Cl [L779450] (first compound 0.02 µM, partner dose 0.2 µM), the “cleaved PARP positive nuclei fraction” value is 54.3%.

As to `C#Cc1cccc(Nc2ncnc3cc(OCCOC)c(OCCOC)cc23)c1` [erlotinib] + c1cc(-c2cnn3cc(-c4ccc(OCCN5CCCCC5)cc4)cnc23)ccn1 [Dorsomorphin] (first compound 0.8 µM, partner dose 0.4 µM), the “cleaved PARP positive nuclei fraction” value stood at 37.1%.

In the case of `O=C(CCCCCCC(=O)Nc1ccccc1)NO` [vorinostat] + CC(C)CCN1c2nc(Nc3cc(F)c(O)c(F)c3)ncc2N(C)C(=O)C1C [BID1870] (first compound 0.08 µM, partner dose 0.2 µM), the “cleaved PARP positive nuclei fraction” value came to 64%.

As to `C#Cc1cccc(Nc2ncnc3cc(OCCOC)c(OCCOC)cc23)c1` [erlotinib] + CCCCCCCCCCCC1=C(O)C(=O)C=C(O)C1=O [Embelin] (first compound 0.8 µM, partner dose 1.2 µM), the “cleaved PARP positive nuclei fraction” value was 127%.

For the molecule `Cn1nnc2c(C(N)=O)ncn2c1=O` [temozolomide] + CC(C)CCN1c2nc(Nc3cc(F)c(O)c(F)c3)ncc2N(C)C(=O)C1C [BID1870] (first compound 2 µM, partner dose 0.2 µM), the “cleaved PARP positive nuclei fraction” value is 54.3%.

As for `C#Cc1cccc(Nc2ncnc3cc(OCCOC)c(OCCOC)cc23)c1` [erlotinib] + O=C(O)C(=O)Nc1sc2c(c1C(=O)O)CCNC2 [TCS401] (first compound 0.8 µM, partner dose 1.66667 µM), the “cleaved PARP positive nuclei fraction” value came to 51.1%.

For the origin of these results see the supplement of paper PMC4604168 (melanoma cell lines).
